Like-named read-outs stand apart in the source and are kept apart here. No constants are given. Whether binding was seen depends on the method and setting. In cells and extracts the contact can be indirect. Some results given as binding are weak or reduced against the parent protein; the word gives no strength. For some assays here: Sequences can lack the tags named with a protein.
Columns and labels:
[1] = molecular target: 3xFLAG-HPV16 E7 (HPV16) (UniProt P03129); test: co-IP; HEK-293T co-transfected with pCineo-3xFLAG HPV16 E6 or E7 and pSpica-N1 (Gluc1 fusion); lysis in 50 mM Tris-HCl pH7.4, 150 mM NaCl, 1 mM EDTA, 1% Triton X-100; anti-Flag M2 magnetic beads overnight; blot with anti-Gaussia luciferase antibody
[2] = molecular target: T1, Gluc2-HPV39 E7 (HPV39) (UniProt P24837); test: split reporter; Gaussia princeps luciferase complementation assay (GPCA): HEK-293T co-transfected with 100 ng pSpica-N2-HPV E6 or E7 (Gluc2) and 100 ng pSpica-N1 (Gluc1, DNA repair library); 24 h, Renilla lysis buffer 30 min at room temperature, luminescence as RLU or normalized luminescence ratio (NLR)
T1 sequence: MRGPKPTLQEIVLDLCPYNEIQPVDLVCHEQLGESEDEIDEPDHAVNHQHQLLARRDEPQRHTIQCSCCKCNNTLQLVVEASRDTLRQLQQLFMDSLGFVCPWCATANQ

Chains of the proteins cited; added tags and fusions are not shown.
UniProt P03129: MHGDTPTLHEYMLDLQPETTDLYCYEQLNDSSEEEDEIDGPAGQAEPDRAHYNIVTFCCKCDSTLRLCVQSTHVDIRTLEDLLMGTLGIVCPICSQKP
UniProt P06788: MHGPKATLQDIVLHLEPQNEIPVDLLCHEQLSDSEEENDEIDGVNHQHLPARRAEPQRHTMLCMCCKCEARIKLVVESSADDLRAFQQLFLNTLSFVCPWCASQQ
UniProt P03126: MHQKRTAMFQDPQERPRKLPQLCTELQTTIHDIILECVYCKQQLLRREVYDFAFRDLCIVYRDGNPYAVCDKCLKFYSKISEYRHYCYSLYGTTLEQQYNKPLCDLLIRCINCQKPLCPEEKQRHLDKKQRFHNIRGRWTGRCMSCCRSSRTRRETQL
UniProt P06463: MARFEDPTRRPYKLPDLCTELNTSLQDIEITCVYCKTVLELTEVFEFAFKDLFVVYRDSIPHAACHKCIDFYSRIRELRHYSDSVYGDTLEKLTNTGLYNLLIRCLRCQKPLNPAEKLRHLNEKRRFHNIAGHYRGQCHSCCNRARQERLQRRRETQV
UniProt P19447: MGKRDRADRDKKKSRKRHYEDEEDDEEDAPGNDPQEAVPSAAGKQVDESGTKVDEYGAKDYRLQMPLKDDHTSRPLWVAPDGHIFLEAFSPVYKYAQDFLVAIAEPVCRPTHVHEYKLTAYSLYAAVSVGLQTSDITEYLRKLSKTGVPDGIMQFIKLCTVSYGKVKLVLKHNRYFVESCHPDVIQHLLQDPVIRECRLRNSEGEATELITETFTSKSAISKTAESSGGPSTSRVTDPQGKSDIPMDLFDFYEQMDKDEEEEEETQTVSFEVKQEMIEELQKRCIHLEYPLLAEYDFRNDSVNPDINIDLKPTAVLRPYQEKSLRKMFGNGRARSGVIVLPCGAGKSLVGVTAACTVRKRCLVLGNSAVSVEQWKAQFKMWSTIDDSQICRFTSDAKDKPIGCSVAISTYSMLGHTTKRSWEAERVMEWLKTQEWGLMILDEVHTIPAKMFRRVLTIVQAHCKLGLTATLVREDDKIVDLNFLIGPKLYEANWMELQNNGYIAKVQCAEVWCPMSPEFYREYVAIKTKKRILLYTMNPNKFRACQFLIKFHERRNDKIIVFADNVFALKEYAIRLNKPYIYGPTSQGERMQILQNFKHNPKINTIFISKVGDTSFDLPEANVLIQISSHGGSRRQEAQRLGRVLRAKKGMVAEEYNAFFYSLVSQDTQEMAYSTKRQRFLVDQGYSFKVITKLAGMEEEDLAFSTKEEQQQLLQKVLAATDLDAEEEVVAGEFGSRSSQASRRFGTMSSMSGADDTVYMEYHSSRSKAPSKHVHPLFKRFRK

[3] = molecular target: Gluc2-HPV18 E7 (HPV18) (UniProt P06788); test: as above
[4] = molecular target: Gluc2-HPV16 E7 (HPV16) (UniProt P03129); test: as above
[5] = molecular target: T2, Gluc2-HPV33 E7 (HPV33) (UniProt P06429); test: as above
T2 sequence: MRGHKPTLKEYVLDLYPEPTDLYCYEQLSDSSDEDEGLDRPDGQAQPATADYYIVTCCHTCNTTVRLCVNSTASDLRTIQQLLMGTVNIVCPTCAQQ

[6] = molecular target: 3xFLAG-HPV16 E6 (HPV16) (UniProt P03126); test: co-IP; HEK-293T co-transfected with pCineo-3xFLAG HPV16 E6 or E7 and pSpica-N1 (Gluc1 fusion); lysis in 50 mM Tris-HCl pH7.4, 150 mM NaCl, 1 mM EDTA, 1% Triton X-100; anti-Flag M2 magnetic beads overnight; blot with anti-Gaussia luciferase antibody
[7] = molecular target: Gluc2-HPV18 E6 (HPV18) (UniProt P06463); test: split reporter; Gaussia princeps luciferase complementation assay (GPCA): HEK-293T co-transfected with 100 ng pSpica-N2-HPV E6 or E7 (Gluc2) and 100 ng pSpica-N1 (Gluc1, DNA repair library); 24 h, Renilla lysis buffer 30 min at room temperature, luminescence as RLU or normalized luminescence ratio (NLR)
[8] = molecular target: Gluc2-HPV16 E6 (HPV16) (UniProt P03126); test: as above
[9] = molecular target: Gluc2-HPV39 E6 (HPV39) (UniProt P24835); test: as above
[10] = molecular target: Gluc2-HPV33 E6 (HPV33) (UniProt P06427); test: as above
[11] = molecular target: T1, Gluc2-HPV39 E7 (HPV39); test: as above; remark: listed apart in the source
[12] = molecular target: Gluc2-HPV18 E7 (HPV18) (UniProt P06788); test: as above; remark: listed apart in the source
[13] = molecular target: Gluc2-HPV16 E7 (HPV16) (UniProt P03129); test: as above; remark: listed apart in the source
[14] = molecular target: T2, Gluc2-HPV33 E7 (HPV33); test: as above; remark: listed apart in the source
[15] = molecular target: Gluc2-HPV18 E6 (HPV18) (UniProt P06463); test: as above; remark: listed apart in the source
[16] = molecular target: Gluc2-HPV16 E6 (HPV16) (UniProt P03126); test: as above; remark: listed apart in the source
[17] = molecular target: Gluc2-HPV39 E6 (HPV39) (UniProt P24835); test: as above; remark: listed apart in the source
[18] = molecular target: Gluc2-HPV33 E6 (HPV33) (UniProt P06427); test: as above; remark: listed apart in the source

Measured: binding

Gluc1-PNKP (from UniProt Q96T60 1-521)
binds: [1] | [2] | [3] | [4] | [5]

Gluc1-CHEK2 (from UniProt O96017 1-543)
binds: [6] | [1] | [7] | [2] | [3] | [4] | [8] | [9] | [10] | [5]

Gluc1-ERCC3 (from UniProt P19447 1-782)
binds: [6] | [1] | [7] | [2] | [3] | [4] | [8] | [9] | [10] | [5]

B1: Gluc1-POLDIP2 (protein, UniProt Q9Y2S7 52-368)
chain: SSRNRPEGKVLETVGVFEVPKQNGKYETGQLFLHSIFGYRGVVLFPWQARLYDRDVASAAPEKAENPAGHGSKEVKGKTHTYYQVLIDARDCPHISQRSQTEAVTFLANHDDSRALYAIPGLDYVSHEDILPYTSTDQVPIQHELFERFLLYDQTKAPPFVARETLRAWQEKNHPWLELSDVHRETTENIRVTVIPFYMGMREAQNSHVYWWRYCIRLENLDSDVVQLRERHWRIFSLSGTLETVRGRGVVGREPVLSKEQPAFQYSSHVSLQASSGHMWGTFRFERPDGSHFDVRIPPFSLESNKDEKTPPSGLHW
binds: [11] | [12] | [13] | [14] | [1]

B2: Gluc1-RMI1 (protein, UniProt Q9H9A7 1-625)
chain: MNVTSIALRAETWLLAAWHVKVPPMWLEACINWIQEENNNVNLSQAQMNKQVFEQWLLTDLRDLEHPLLPDGILEIPKGELNGFYALQINSLVDVSQPAYSQIQKLRGKNTTNDLVTAEAQVTPKPWEAKPSRMLMLQLTDGIVQIQGMEYQPIPILHSDLPPGTKILIYGNISFRLGVLLLKPENVKVLGGEVDALLEEYAQEKVLARLIGEPDLVVSVIPNNSNENIPRVTDVLDPALGPSDEELLASLDENDELTANNDTSSERCFTTGSSSNTIPTRQSSFEPEFVISPRPKEEPSNLSIHVMDGELDDFSLEEALLLEETVQKEQMETKELQPLTFNRNADRSIERFSHNPNTTNNFSLTCKNGNNNWSEKNVSEQMTNEDKSFGCPSVRDQNRSIFSVHCNVPLAHDFTNKEKNLETDNKIKQTSSSDSHSLNNKILNREVVNYVQKRNSQISNENDCNLQSCSLRSSENSINLSIAMDLYSPPFVYLSVLMASKPKEVTTVKVKAFIVTLTGNLSSSGGIWSITAKVSDGTAYLDVDFVDEILTSLIGFSVPEMKQSKKDPLQYQKFLEGLQKCQRDLIDLCCLMTISFNPSLSKAMVLALQDVNMEHLENLKKRLNK
binds: [15] | [16] | [17] | [18] | [6]

— paper PMC9925306
